Where two headings read alike, the source gives them in different places. Results are given in words; binding and its absence hold for the method and conditions named. In cells and extracts the contact can be indirect. Here binding means that the protein was enriched with, or labelled near, the bait; the list need not be complete. Sequences can lack the tags named with a protein. Each block holds one molecule with its values, some of them ahead of it.
Key:
[1] = biological target: T1, MYSM1-Flag (Myb-like Swirm and MPN domain containing 1, 2A-DUB/MYSM1) (UniProt Q5VVJ2); experiment: affinity purification with mass spectrometry; anti-Flag (vs. control IgG) co-IP from RIPA lysates of 293T cells transiently expressing MYSM1-Flag (control GFP-Flag), treated with etoposide or DMSO for the last 6 h; eluates fractionated by SDS-PAGE, trypsin digest, SCX-HPLC-MS/MS (Orbitrap Velos Pro), label-free quantification with MaxQuant
T1 sequence: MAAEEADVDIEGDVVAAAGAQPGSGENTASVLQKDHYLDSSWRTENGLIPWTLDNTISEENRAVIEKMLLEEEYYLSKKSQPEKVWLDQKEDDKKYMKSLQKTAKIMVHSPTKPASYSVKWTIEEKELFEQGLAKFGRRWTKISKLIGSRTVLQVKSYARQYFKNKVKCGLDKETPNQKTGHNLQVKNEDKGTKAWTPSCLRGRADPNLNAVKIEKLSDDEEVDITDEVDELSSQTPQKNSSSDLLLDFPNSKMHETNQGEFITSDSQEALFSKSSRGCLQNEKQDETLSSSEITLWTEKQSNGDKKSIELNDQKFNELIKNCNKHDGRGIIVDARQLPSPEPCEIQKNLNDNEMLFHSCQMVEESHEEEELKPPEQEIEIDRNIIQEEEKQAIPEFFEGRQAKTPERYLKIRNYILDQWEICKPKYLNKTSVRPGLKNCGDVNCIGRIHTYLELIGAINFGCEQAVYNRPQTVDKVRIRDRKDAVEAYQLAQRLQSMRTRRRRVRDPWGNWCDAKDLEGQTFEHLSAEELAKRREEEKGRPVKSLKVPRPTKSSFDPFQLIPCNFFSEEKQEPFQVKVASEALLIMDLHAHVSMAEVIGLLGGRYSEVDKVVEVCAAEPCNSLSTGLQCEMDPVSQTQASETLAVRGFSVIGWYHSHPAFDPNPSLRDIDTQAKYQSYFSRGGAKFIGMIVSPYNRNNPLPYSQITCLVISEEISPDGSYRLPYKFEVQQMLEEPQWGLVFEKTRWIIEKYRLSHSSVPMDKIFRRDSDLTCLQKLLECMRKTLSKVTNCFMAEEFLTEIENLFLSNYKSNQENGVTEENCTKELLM

The chains behind the UniProt entries cited, without tags or fusion partners.
UniProt P52701: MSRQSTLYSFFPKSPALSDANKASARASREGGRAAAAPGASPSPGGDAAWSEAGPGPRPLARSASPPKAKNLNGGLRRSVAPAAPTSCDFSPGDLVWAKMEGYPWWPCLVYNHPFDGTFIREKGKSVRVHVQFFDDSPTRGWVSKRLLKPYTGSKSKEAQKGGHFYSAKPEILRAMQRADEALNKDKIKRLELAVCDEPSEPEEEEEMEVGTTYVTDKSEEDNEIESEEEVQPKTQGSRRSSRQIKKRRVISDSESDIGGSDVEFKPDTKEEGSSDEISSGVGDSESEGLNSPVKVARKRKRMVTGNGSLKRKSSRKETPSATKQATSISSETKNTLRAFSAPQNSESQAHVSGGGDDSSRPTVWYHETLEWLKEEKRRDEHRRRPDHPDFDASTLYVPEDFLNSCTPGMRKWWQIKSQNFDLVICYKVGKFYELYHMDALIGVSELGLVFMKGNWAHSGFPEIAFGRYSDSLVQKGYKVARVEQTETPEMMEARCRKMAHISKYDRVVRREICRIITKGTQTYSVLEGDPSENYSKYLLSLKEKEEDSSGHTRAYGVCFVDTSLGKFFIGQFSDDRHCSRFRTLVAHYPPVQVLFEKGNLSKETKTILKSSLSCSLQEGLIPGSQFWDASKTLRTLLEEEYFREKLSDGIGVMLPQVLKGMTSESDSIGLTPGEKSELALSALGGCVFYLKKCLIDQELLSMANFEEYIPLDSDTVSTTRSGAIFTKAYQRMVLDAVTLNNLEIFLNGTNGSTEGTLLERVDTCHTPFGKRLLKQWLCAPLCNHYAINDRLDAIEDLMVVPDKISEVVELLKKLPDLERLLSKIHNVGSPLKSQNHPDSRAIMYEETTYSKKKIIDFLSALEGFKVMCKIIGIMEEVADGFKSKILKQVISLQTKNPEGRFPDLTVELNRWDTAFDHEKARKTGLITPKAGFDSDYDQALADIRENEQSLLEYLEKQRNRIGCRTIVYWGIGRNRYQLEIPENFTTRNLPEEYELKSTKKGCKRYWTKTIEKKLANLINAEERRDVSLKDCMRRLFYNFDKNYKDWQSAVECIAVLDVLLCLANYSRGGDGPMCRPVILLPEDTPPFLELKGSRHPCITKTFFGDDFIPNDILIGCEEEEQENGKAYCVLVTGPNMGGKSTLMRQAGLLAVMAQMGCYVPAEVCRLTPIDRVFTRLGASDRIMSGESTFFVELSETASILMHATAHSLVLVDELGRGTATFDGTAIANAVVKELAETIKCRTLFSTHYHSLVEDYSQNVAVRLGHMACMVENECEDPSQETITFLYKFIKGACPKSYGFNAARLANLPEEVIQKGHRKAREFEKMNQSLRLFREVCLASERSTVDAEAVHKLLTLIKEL
UniProt P40937: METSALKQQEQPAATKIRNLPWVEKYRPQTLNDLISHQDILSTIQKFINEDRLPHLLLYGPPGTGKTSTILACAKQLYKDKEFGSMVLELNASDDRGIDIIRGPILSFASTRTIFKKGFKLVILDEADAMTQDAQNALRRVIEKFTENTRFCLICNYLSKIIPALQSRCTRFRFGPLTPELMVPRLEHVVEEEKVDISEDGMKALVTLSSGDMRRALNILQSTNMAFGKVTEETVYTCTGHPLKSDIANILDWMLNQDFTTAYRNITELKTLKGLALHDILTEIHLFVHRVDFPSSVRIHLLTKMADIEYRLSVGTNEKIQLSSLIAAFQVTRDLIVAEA
UniProt P20700: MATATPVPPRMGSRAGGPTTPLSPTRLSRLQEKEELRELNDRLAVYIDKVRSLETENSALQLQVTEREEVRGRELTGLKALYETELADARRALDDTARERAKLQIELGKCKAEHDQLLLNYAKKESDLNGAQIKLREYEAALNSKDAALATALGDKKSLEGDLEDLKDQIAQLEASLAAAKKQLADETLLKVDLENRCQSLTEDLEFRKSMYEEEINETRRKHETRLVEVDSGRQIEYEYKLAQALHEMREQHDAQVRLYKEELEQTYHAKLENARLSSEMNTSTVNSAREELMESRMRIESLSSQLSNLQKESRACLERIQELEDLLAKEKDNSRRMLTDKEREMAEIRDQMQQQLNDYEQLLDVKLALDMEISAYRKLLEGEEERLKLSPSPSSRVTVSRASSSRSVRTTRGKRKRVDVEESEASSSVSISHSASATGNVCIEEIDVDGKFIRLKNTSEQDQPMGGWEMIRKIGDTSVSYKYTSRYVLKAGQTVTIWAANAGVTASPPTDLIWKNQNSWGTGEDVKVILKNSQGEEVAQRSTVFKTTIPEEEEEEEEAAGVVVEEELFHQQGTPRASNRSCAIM
UniProt O75367: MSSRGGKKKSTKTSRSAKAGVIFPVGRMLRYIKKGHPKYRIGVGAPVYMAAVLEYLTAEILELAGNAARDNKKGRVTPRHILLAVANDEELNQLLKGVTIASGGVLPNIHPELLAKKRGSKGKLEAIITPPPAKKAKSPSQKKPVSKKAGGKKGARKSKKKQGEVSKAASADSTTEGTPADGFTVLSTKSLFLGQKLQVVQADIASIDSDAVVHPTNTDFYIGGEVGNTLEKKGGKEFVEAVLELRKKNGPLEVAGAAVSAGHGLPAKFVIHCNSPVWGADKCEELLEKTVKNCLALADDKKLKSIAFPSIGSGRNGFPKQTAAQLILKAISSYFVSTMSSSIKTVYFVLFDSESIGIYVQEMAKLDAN
UniProt P35249: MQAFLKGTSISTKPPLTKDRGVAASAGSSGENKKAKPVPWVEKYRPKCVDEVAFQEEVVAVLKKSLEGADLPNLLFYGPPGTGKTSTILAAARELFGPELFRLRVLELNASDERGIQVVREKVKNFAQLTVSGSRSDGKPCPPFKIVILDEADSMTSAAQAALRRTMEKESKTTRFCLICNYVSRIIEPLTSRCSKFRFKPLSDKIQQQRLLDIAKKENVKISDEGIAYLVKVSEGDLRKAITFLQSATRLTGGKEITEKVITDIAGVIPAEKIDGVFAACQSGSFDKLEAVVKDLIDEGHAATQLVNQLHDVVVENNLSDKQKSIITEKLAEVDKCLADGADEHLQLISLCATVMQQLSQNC
UniProt P28340: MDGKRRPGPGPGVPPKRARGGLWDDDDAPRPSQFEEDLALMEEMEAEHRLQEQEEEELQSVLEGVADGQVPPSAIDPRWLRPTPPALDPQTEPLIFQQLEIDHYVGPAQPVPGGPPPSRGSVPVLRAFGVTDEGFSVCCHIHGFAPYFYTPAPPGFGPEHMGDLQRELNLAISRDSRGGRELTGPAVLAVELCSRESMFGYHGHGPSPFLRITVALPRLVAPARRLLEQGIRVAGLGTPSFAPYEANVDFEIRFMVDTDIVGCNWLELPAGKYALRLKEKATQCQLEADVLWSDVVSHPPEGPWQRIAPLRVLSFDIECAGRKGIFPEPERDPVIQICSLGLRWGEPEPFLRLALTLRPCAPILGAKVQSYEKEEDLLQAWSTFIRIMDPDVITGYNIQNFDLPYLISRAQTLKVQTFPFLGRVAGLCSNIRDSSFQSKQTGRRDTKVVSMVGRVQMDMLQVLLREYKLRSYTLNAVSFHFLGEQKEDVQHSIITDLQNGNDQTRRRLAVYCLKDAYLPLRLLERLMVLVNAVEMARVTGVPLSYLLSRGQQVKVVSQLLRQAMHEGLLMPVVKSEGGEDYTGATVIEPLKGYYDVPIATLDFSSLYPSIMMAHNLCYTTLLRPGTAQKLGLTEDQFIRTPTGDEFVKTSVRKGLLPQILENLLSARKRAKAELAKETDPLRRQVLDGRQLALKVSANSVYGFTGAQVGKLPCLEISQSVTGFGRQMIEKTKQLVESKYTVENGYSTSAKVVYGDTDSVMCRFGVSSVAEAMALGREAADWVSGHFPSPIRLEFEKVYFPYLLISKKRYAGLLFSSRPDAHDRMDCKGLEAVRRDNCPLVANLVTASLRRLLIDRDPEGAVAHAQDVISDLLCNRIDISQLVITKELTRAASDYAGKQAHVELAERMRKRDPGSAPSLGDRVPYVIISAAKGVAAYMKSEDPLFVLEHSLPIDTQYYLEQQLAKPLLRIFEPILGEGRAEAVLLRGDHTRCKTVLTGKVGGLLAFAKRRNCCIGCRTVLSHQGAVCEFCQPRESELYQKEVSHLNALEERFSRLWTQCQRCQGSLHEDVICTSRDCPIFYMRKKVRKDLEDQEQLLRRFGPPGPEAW

[2] = biological target: T1, MYSM1-Flag (Myb-like Swirm and MPN domain containing 1, 2A-DUB/MYSM1); experiment: as above; remark: listed apart in the source

Molecule: MSH6 (from UniProt P52701 1-1360)
binding [1]: binds weakly

Molecule: replication factor C subunit RFC5 (from UniProt P40937 1-340)
binding [1]: binds

Molecule: Lamin B1 (from UniProt P20700 1-586)
binding [1]: binds weakly

B3: thymidine kinase 1 (TK1) (enzyme, UniProt P04183 1-234)
chain: MSCINLPTVLPGSPSKTRGQIQVILGPMFSGKSTELMRRVRRFQIAQYKCLVIKYAKDTRYSSSFCTHDRNTMEALPACLLRDVAQEALGVAVIGIDEGQFFPDIVEFCEAMANAGKTVIVAALDGTFQRKPFGAILNLVPLAESVVKLTAVCMECFREAAYTKRLGTEKEVEVIGGADKYHSVCRLCYFKKASGQPAGPDNKENCPVPGKPGEAVAARKLFAPQQILQCSPAN
binding [2]: binds

Now from value to molecule:

binding [1]: binds
Molecule: macroH2A.1 (from UniProt O75367 1-369)

binding [1]: binds
Molecule: replication factor C (RFC) 4 (from UniProt P35249 1-363)

binding [1]: binds weakly
Molecule: POLD1 (from UniProt P28340 1-1107) (enzyme)

binding [2]: binds
B1: BRCA1-associated ATM activator 1 (BRAT1) (protein, UniProt Q6PJG6 1-821)
chain: MDPECAQLLPALCAVLVDPRQPVADDTCLEKLLDWFKTVTEGESSVVLLQEHPCLVELLSHVLKVQDLSSGVLSFSLRLAGTFAAQENCFQYLQQGELLPGLFGEPGPLGRATWAVPTVRSGWIQGLRSLAQHPSALRFLADHGAVDTIFSLQGDSSLFVASAASQLLVHVLALSMRGGAEGQPCLPGGDWPACAQKIMDHVEESLCSAATPKVTQALNVLTTTFGRCQSPWTEALWVRLSPRVACLLERDPIPAAHSFVDLLLCVARSPVFSSSDGSLWETVARALSCLGPTHMGPLALGILKLEHCPQALRTQAFQVLLQPLACVLKATVQAPGPPGLLDGTADDATTVDTLLASKSSCAGLLCRTLAHLEELQPLPQRPSPWPQASLLGATVTVLRLCDGSAAPASSVGGHLCGTLAGCVRVQRAALDFLGTLSQGTGPQELVTQALAVLLECLESPGSSPTVLKKAFQATLRWLLSSPKTPGCSDLGPLIPQFLRELFPVLQKRLCHPCWEVRDSALEFLTQLSRHWGGQADFRCALLASEVPQLALQLLQDPESYVRASAVTAMGQLSSQGLHAPTSPEHAEARQSLFLELLHILSVDSEGFPRRAVMQVFTEWLRDGHADAAQDTEQFVATVLQAASRDLDWEVRAQGLELALVFLGQTLGPPRTHCPYAVALPEVAPAQPLTEALRALCHVGLFDFAFCALFDCDRPVAQKSCDLLLFLRDKIASYSSLREARGSPNTASAEATLPRWRAGEQAQPPGDQEPEAVLAMLRSLDLEGLRSTLAESSDHVEKSPQSLLQDMLATGGFLQGDEADCY

binding [2]: binds
B2: DNA helicase HELLS (enzyme, UniProt Q9NRZ9 1-838)
chain: MPAERPAGSGGSEAPAMVEQLDTAVITPAMLEEEEQLEAAGLERERKMLEKARMSWDRESTEIRYRRLQHLLEKSNIYSKFLLTKMEQQQLEEQKKKEKLERKKESLKVKKGKNSIDASEEKPVMRKKRGREDESYNISEVMSKEEILSVAKKNKKENEDENSSSTNLCVEDLQKNKDSNSIIKDRLSETVRQNTKFFFDPVRKCNGQPVPFQQPKHFTGGVMRWYQVEGMEWLRMLWENGINGILADEMGLGKTVQCIATIALMIQRGVPGPFLVCGPLSTLPNWMAEFKRFTPDIPTMLYHGTQEERQKLVRNIYKRKGTLQIHPVVITSFEIAMRDRNALQHCYWKYLIVDEGHRIKNMKCRLIRELKRFNADNKLLLTGTPLQNNLSELWSLLNFLLPDVFDDLKSFESWFDITSLSETAEDIIAKEREQNVLHMLHQILTPFLLRRLKSDVALEVPPKREVVVYAPLSKKQEIFYTAIVNRTIANMFGSSEKETIELSPTGRPKRRTRKSINYSKIDDFPNELEKLISQIQPEVDRERAVVEVNIPVESEVNLKLQNIMMLLRKCCNHPYLIEYPIDPVTQEFKIDEELVTNSGKFLILDRMLPELKKRGHKVLLFSQMTSMLDILMDYCHLRDFNFSRLDGSMSYSEREKNMHSFNTDPEVFIFLVSTRAGGLGINLTAADTVIIYDSDWNPQSDLQAQDRCHRIGQTKPVVVYRLVTANTIDQKIVERAAAKRKLEKLIIHKNHFKGGQSGLNLSKNFLDPKELMELLKSRDYEREIKGSREKVISDKDLELLLDRSDLIDQMNASGPIKEKMGIFKILENSEDSSPECLF
